In the supplement of paper PMC10849652:
The other results are listed elsewhere or left out.

By UniProt entry, the sequences of proteins in these tests, tags left out. Where a name states a change or a piece, a line headed by the entry shows the natural chain unless it says otherwise.
UniProt Q99714: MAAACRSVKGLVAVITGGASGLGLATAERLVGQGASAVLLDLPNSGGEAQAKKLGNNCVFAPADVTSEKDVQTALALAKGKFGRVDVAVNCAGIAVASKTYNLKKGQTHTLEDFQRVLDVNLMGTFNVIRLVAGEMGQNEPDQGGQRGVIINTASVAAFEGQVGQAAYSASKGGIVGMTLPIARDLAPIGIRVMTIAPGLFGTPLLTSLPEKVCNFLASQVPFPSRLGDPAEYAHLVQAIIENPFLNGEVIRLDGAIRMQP
UniProt O14964, whole entry, looked up: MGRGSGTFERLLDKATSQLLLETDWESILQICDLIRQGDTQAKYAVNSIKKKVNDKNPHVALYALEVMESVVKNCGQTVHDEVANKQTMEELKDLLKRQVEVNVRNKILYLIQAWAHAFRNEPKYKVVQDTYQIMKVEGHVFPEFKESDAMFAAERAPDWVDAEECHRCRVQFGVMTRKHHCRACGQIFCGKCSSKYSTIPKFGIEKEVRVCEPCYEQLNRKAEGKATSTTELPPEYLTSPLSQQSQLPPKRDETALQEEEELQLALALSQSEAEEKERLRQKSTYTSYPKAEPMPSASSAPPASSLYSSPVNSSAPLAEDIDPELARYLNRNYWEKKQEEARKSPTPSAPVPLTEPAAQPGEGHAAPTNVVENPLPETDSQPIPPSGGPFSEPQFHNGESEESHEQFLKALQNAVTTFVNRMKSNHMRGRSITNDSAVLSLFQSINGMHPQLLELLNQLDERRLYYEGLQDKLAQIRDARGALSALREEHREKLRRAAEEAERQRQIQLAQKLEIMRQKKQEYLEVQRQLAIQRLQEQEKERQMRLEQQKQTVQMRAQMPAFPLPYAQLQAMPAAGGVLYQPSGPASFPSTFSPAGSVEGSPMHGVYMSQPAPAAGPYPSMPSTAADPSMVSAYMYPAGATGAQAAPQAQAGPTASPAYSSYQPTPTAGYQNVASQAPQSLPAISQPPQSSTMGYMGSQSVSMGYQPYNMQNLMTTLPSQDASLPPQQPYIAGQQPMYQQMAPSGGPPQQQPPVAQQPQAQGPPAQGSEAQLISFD
UniProt Q5T440: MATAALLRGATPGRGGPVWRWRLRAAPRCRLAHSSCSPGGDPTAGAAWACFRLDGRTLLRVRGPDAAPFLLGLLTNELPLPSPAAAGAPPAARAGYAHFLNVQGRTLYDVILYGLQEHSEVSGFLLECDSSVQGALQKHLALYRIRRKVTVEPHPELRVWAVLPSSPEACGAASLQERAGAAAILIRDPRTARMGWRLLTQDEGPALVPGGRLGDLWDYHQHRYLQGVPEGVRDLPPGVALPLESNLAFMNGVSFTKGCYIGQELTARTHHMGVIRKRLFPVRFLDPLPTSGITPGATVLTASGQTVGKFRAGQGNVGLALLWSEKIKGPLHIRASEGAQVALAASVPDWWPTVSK
UniProt P09651: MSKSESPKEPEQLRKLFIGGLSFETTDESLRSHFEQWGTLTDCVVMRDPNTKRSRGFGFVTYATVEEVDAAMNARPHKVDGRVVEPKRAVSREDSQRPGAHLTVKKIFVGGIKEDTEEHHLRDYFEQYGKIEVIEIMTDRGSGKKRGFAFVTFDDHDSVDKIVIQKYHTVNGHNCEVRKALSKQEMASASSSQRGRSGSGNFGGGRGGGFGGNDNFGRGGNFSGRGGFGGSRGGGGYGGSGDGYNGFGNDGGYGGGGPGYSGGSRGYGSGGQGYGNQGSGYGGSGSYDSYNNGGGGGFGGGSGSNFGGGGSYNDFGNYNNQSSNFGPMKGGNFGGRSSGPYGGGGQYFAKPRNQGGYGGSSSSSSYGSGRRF
UniProt O75146: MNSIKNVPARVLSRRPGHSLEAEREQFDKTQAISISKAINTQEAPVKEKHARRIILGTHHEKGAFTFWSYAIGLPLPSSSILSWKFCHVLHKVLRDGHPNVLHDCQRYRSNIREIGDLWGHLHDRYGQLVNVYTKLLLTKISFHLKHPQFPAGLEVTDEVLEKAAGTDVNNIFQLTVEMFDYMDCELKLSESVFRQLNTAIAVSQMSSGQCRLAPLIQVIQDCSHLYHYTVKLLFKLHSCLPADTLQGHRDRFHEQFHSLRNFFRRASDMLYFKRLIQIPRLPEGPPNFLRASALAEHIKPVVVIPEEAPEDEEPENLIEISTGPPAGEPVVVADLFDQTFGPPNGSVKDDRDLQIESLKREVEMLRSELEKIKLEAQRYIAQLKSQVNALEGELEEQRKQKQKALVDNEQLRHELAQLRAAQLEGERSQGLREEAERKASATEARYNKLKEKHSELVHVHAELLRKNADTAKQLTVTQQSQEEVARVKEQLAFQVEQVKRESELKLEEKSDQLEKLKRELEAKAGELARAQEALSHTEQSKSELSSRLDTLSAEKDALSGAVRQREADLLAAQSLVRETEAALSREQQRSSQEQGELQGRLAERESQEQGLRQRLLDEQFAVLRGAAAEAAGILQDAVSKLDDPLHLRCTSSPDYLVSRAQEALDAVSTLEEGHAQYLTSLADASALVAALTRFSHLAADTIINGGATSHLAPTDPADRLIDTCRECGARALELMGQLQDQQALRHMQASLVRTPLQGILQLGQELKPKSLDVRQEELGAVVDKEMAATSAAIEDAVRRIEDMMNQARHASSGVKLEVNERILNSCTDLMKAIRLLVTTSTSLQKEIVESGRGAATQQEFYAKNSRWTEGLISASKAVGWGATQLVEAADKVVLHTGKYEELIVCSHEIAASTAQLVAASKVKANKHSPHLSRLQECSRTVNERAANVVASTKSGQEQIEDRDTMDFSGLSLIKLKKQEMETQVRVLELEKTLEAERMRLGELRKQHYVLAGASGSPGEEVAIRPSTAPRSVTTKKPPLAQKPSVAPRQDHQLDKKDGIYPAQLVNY
UniProt P49773: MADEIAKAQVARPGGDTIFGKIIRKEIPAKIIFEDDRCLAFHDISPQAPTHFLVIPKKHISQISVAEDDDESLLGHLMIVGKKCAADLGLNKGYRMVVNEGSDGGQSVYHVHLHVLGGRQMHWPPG
UniProt P52272: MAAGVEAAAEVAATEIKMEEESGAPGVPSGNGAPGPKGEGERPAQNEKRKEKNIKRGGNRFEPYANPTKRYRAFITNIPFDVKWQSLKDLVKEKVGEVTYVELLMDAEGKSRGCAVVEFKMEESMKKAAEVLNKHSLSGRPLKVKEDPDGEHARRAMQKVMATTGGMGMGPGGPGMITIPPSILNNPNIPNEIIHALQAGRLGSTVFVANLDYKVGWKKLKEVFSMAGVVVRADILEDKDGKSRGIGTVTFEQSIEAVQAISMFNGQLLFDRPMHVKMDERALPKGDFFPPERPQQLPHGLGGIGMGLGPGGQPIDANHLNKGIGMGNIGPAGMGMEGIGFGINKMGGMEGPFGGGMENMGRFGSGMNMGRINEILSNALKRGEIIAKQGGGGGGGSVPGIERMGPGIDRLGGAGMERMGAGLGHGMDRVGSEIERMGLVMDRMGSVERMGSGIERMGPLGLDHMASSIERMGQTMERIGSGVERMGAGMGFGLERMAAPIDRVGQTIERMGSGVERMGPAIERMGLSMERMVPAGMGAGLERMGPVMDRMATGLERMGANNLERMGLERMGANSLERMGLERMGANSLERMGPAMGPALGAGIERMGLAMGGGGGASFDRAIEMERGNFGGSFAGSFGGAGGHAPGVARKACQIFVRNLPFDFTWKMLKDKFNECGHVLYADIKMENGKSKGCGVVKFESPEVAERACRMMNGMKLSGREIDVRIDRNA
UniProt P11021: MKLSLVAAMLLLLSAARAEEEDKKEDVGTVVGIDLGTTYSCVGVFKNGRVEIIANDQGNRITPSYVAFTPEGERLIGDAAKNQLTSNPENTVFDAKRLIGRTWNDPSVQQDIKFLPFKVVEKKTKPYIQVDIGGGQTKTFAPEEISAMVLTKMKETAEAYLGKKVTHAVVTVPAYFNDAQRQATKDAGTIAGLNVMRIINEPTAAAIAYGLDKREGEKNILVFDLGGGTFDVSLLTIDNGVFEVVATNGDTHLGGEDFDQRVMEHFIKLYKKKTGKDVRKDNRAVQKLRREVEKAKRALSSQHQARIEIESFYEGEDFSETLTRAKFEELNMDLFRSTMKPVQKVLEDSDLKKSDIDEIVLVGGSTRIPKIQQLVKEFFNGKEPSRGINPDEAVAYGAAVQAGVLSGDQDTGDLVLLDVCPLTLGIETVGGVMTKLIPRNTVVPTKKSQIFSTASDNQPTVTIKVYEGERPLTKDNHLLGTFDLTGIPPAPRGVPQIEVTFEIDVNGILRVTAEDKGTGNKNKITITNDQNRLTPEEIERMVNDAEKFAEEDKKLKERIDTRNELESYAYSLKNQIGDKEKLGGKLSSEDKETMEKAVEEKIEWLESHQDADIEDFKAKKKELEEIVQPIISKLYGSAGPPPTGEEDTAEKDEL
UniProt P35914: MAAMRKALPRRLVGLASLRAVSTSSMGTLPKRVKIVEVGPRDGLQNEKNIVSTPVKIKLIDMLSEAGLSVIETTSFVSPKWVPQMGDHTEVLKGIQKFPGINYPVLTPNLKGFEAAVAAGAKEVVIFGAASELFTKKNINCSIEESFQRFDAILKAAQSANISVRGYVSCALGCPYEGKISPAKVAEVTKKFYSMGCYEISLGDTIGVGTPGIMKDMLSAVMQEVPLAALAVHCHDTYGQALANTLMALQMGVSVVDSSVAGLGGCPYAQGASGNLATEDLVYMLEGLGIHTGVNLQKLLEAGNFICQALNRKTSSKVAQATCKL
UniProt P52789: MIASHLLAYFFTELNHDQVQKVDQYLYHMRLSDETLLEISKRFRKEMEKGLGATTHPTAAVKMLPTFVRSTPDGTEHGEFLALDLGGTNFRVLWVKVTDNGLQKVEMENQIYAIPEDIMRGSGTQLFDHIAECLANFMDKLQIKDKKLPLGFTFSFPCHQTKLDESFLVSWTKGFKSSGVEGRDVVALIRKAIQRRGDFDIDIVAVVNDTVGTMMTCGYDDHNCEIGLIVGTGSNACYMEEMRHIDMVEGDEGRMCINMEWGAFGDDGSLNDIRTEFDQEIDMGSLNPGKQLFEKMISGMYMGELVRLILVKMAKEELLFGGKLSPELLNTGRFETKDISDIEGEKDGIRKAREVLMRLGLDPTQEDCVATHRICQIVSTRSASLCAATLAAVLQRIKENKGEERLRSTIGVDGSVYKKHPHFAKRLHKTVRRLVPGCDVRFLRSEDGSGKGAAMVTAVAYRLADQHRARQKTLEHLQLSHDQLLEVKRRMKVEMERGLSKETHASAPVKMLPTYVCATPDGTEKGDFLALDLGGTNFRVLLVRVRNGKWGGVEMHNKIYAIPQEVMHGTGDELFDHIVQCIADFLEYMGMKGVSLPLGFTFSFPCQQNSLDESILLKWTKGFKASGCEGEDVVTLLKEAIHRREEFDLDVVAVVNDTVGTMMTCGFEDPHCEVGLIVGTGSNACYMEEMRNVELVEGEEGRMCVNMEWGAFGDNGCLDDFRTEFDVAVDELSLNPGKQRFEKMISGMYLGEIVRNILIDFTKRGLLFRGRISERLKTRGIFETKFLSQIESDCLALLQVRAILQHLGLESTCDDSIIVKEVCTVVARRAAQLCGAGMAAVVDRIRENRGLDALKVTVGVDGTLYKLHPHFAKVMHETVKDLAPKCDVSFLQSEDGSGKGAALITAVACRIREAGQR
UniProt P31943: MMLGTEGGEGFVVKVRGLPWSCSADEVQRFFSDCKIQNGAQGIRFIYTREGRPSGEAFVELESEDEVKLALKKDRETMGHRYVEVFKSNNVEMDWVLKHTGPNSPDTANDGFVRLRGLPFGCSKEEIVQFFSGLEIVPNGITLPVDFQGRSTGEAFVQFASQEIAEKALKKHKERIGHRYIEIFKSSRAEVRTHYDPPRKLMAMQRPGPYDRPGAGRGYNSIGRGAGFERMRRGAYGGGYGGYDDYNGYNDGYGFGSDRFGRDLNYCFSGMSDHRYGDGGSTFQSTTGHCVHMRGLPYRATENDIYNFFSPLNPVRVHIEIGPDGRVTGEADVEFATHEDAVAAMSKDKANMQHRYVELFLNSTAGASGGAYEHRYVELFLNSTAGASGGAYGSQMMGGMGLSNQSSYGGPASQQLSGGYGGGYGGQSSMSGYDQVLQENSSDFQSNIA
UniProt Q8WVV9: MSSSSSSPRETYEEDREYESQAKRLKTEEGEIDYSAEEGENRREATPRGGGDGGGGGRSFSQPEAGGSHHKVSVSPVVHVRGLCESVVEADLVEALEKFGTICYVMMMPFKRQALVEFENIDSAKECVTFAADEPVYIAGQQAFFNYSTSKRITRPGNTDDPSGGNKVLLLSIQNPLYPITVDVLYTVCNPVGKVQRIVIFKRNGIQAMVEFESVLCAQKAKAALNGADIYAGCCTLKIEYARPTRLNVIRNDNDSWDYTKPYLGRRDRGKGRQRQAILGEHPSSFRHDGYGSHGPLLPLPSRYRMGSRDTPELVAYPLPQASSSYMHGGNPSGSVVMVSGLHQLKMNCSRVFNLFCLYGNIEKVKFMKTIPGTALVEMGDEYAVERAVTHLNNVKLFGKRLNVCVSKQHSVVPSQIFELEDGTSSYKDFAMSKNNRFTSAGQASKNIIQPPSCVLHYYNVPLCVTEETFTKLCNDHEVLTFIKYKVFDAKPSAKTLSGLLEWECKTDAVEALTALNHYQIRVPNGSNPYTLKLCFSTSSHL

How the values were obtained:
Experiment in all cases: log2 fold change, soluble protein after heating vs DMSO (PISA); higher = thermal stabilisation; K562 cells, 10 uM, 30 min; active = over 0.2 and 3.5 SD of the protein, either way, in both replicates (recomputed)
[1] = compound: NC(=O)Nc1cc(-c2cccc(F)c2)sc1C(=O)N[C@H]1CCCNC1
How it was run: (§1)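 Soluble protein was quantified by TMTpro 16plex LC-MS/MS after channel sums were equalised. It was obtained as the supernatant after 21,000xg for 90 min from pooled aliquots of K562 cells (2×10^6 cells/mL, 10 μM compound, 30 min) heated for 3 min across 48°C-58°C and extracted in PBS with 0.5% NP-40 at 4°C. Thermal stability values are relative to control samples and come from duplicates. They are given as log2 fold changes.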

[2] = compound: NC(=O)c1cnc(N[C@@H]2CCCC[C@@H]2N)nc1Nc1cccc(-n2nccn2)c1
How it was run: as §1

[3] = compound: NC1(c2ccc(-c3nc4ccn5c(=O)[nH]nc5c4cc3-c3ccccc3)cc2)CCC1
How it was run: as §1

[4] = compound: NCC(=O)Nc1ccc(-n2nc(C(F)(F)F)cc2-c2ccc3c(ccc4ccccc43)c2)cc1
How it was run: as §1

entinostat = compound: Nc1ccccc1NC(=O)c1ccc(CNC(=O)OCc2cccnc2)cc1 [entinostat]
How it was run: as §1

vorinostat = compound: O=C(CCCCCCC(=O)Nc1ccccc1)NO [vorinostat]
How it was run: as §1

citarinostat = compound: O=C(CCCCCCNC(=O)c1cnc(N(c2ccccc2)c2ccccc2Cl)nc1)NO [citarinostat]
How it was run: as §1

silmitasertib = compound: O=C(O)c1ccc2c(c1)nc(Nc1cccc(Cl)c1)c1ccncc12 [silmitasertib]
How it was run: as §1

[5] = compound: O=C1NC(=O)C(c2cnc3ccccn23)=C1c1cn2c3c(cc(F)cc13)CN(C(=O)N1CCCCC1)CC2
How it was run: as §1

[6] = compound: c1cc(OCCN2CCCCC2)cc(-c2n[nH]c3ccc(-c4nnc[nH]4)cc23)c1
How it was run: as §1

Measured: log2 fold change

HSDL1 (UniProt Q3SXM5)
inactive: [1] -0.018 | [2] -0.02 | [3] -0.017 | [4] -0.005 | entinostat -0.053 | vorinostat -0.042 | citarinostat 0.003 | silmitasertib -0.002 | [5] -0.016 | [6] -0.038

HSD17B10 (UniProt Q99714)
inactive: [1] 0.055 | [2] 0.032 | [3] -0.002 | [4] 0.013 | entinostat 0.03 | vorinostat 0.003 | citarinostat 0.156 | silmitasertib -0.07 | [5] 0.055 | [6] 0.032

HSPA8 (UniProt E9PN89)
inactive: [1] -0.317 | [2] -0.283 | [3] -0.172 | [4] -0.372 | entinostat -0.135 | vorinostat -0.057 | citarinostat -0.304 | silmitasertib 0.365 | [5] -0.102 | [6] -0.394

HNRNPK isoform 2 (UniProt P61978)
inactive: [1] -0.045 | [2] -0.086 | [3] -0.073 | [4] -0.093 | entinostat 0.056 | vorinostat 0.065 | citarinostat 0.05 | silmitasertib -0.017 | [5] -0.137 | [6] -0.038

HGS (UniProt O14964)
inactive: [1] -0.033 | [2] -0.074 | [3] -0.12 | [4] -0.046 | entinostat 0.016 | vorinostat 0.016 | citarinostat 0.062 | silmitasertib 0.007 | [5] -0.006 | [6] -0.015

IBA57 (UniProt Q5T440)
inactive: [1] -0.019 | [2] 0.012 | [3] -0.11 | [4] -0.003 | entinostat 0.01 | vorinostat -0.024 | citarinostat -0.018 | silmitasertib -0.025 | [5] -0.004 | [6] 0.041

HNRNPA1 (UniProt P09651)
inactive: [1] -0.005 | [2] 0.051 | [3] 0.334 | [4] 0.088 | entinostat -0.104 | vorinostat -0.014 | citarinostat -0.131 | silmitasertib 0.225 | [5] 0.2 | [6] -0.183

HMGN2 (UniProt P05204)
inactive: [1] 0.071 | [2] 0.07 | [3] 0.139 | [4] 0.027 | entinostat -0.092 | vorinostat -0.225 | citarinostat -0.129 | silmitasertib 0.02 | [5] 0.067 | [6] 0.151

HIP1R (UniProt O75146)
inactive: [1] -0.032 | [2] -0.001 | [3] -0.138 | [4] 0.014 | entinostat 0.027 | vorinostat 0.069 | citarinostat 0.022 | silmitasertib 0 | [5] -0.024 | [6] -0.005

HINT1 (UniProt P49773)
inactive: [1] -0.053 | [2] -0.083 | [3] -0.015 | [4] -0.035 | entinostat 0.012 | vorinostat -0.117 | citarinostat -0.006 | silmitasertib -0.024 | [5] -0.081 | [6] -0.027

HSPA8 (UniProt P11142)
inactive: [1] -0.006 | [2] 0.011 | [3] 0.018 | [4] 0.012 | entinostat -0.009 | vorinostat -0.01 | citarinostat -0.026 | silmitasertib -0.015 | [5] 0.003 | [6] -0.034

HSPA9 (UniProt P38646)
inactive: [1] 0.032 | [2] 0.015 | [3] 0.035 | [4] 0.013 | entinostat -0.007 | vorinostat -0.013 | citarinostat -0.026 | silmitasertib -0.015 | [5] -0.014 | [6] 0.01

HNRNPM (UniProt P52272)
inactive: [1] 0.115 | [2] 0.107 | [3] 0.233 | [4] 0.047 | entinostat -0.011 | vorinostat 0.039 | citarinostat -0.074 | silmitasertib 0.112 | [5] 0.137 | [6] -0.234

HIC2 (UniProt Q96JB3)
inactive: [1] -0.071 | [2] -0.06 | [3] 0.016 | [4] 0.101 | entinostat -0.027 | vorinostat -0.027 | citarinostat -0.019 | silmitasertib 0.098 | [5] 0.121 | [6] -0.233

HSPA5 (UniProt P11021)
inactive: [1] 0.008 | [2] -0.003 | [3] -0.001 | [4] 0.014 | entinostat -0.009 | vorinostat -0.028 | citarinostat -0.044 | silmitasertib -0.025 | [5] -0.007 | [6] -0.018

HPCAL1 (UniProt P37235)
inactive: [1] 0.033 | [2] -0.014 | [3] -0.152 | [4] -0.032 | entinostat 0.006 | vorinostat -0.018 | citarinostat 0.032 | silmitasertib 0.028 | [5] -0.03 | [6] -0.032

2 consecutive entries out of the list so far:
HSPA9 (UniProt P38646)
inactive: [1] 0.032 | [2] 0.015 | [3] 0.035 | [4] 0.013 | entinostat -0.007 | vorinostat -0.013 | citarinostat -0.026 | silmitasertib -0.015 | [5] -0.014 | [6] 0.01

HNRNPM (UniProt P52272)
inactive: [1] 0.115 | [2] 0.107 | [3] 0.233 | [4] 0.047 | entinostat -0.011 | vorinostat 0.039 | citarinostat -0.074 | silmitasertib 0.112 | [5] 0.137 | [6] -0.234

Further records:

HMGCL (UniProt P35914)
inactive: [1] 0.122 | [2] 0.021 | [3] -0.056 | [4] 0.083 | entinostat -0.039 | vorinostat 0.029 | citarinostat 0.047 | silmitasertib -0.107 | [5] -0.001 | [6] 0.021

HMMR isoform 3 (UniProt O75330)
inactive: [1] 0.009 | [2] -0.101 | [3] -0.058 | [4] -0.049 | entinostat 0.063 | vorinostat 0.11 | citarinostat -0.002 | silmitasertib 0.085 | [5] 0.101 | [6] -0.05

HK2 (UniProt P52789)
inactive: [1] 0.003 | [2] -0.012 | [3] -0.059 | [4] 0.016 | entinostat 0.022 | vorinostat 0.048 | citarinostat 0.046 | silmitasertib -0.021 | [5] -0.065 | [6] -0.059

HNRNPH1 (UniProt P31943)
inactive: [1] 0.052 | [2] -0.023 | [3] -0.075 | [4] -0.059 | entinostat 0.118 | vorinostat 0.168 | citarinostat 0.09 | silmitasertib 0.024 | [5] -0.105 | [6] -0.074

HSD17B12 (UniProt Q53GQ0)
inactive: [1] -0.031 | [2] 0.005 | [3] -0.049 | [4] 0.066 | entinostat -0.02 | vorinostat -0.014 | citarinostat 0.14 | silmitasertib 0.037 | [5] -0.146 | [6] -0.082

HNRNPLL (UniProt Q8WVV9)
inactive: [1] -0.169 | [2] -0.028 | [3] -0.151 | [4] -0.072 | entinostat 0.184 | vorinostat 0.231 | citarinostat 0.202 | silmitasertib -0.049 | [5] -0.268 | [6] -0.18

HNRNPD (UniProt Q14103)
inactive: [1] -0.001 | [2] 0.173 | [3] 0.222 | [4] 0.08 | entinostat -0.075 | vorinostat -0.02 | citarinostat -0.115 | silmitasertib 0.096 | [5] 0.107 | [6] -0.08

HSP90AB1 (UniProt P08238)
inactive: [1] 0 | [2] 0.015 | [3] -0.066 | [4] -0.033 | entinostat 0.015 | vorinostat 0.063 | citarinostat 0.036 | silmitasertib -0.005 | [5] -0.022 | [6] -0.003

HNRNPU (UniProt Q00839)
inactive: [1] -0.075 | [2] -0.079 | [3] -0.014 | [4] -0.007 | entinostat 0.075 | vorinostat 0.13 | citarinostat 0.038 | silmitasertib 0.048 | [5] 0.145 | [6] -0.248

HTRA2 (UniProt O43464)
inactive: [1] 0.025 | [2] -0.057 | [3] -0.063 | [4] 0.038 | entinostat -0.002 | vorinostat 0.07 | citarinostat 0.025 | silmitasertib -0.001 | [5] -0.035 | [6] -0.026

HIP1 (UniProt O00291)
inactive: [1] -0.038 | [2] 0.035 | [3] 0.032 | [4] 0.038 | entinostat -0.061 | vorinostat -0.013 | citarinostat 0.072 | silmitasertib -0.123 | [5] -0.146 | [6] 0.06
